The values that follow come from article PMC7181608.

Sequences of proteins named here, by UniProt entry; tags and fusion partners are left off. A change or cut given only in a name is not applied to a line headed by its entry.
UniProt P58012: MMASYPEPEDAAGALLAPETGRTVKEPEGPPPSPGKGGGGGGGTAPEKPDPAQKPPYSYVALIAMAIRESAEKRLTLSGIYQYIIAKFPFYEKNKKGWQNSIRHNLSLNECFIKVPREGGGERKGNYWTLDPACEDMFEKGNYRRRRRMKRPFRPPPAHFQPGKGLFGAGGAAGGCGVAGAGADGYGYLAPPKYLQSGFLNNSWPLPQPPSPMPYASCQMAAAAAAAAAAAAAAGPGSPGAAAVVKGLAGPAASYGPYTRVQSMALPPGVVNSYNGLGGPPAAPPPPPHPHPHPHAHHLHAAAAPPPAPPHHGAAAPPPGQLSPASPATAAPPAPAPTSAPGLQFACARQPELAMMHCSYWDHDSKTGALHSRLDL

In assay [1] the target is Myc-tagged forkhead domain-deleted FOXL2 (ΔFH) (human) (UniProt P58012). Put plainly: co-IP; 293T cells transfected with Myc-tagged FOXL2 forms (with Flag-XRCC5 or XRCC6 fragments where indicated); IP with anti-Myc, immunoblot. For orientation: A western blot detects proteins with antibodies after separation by electrophoresis.
Assay [2] has as its target Myc-tagged polyalanine-deleted FOXL2 (ΔAla) (human) (UniProt P58012). Described as above.

Results are given in words; binding and its absence hold for the method and conditions named. Binding seen in cells or lysates may run through a third protein. For some of these results: Binding can be weak; no strength is given.

Consider “XRCC5 (Ku80), endogenous (from UniProt P13010 1-732)”, for which the binding entry in assay [1] is recorded as “no binding”; in assay [2], “binds”.
On to “XRCC6 (Ku70), endogenous (from UniProt P12956 1-609)”, for which the binding entry is on record as “no binding” in assay [1] and “binds” in assay [2].
